Record: PubChem BioAssay AID652259 (Drosophila RNAi Screening Center, 2013)
The screen tested about 22,000 reagents; shown is a random part of those that have a named target and a result. Over the whole deposit, 233 (1.1%) were called active. 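Light values are raw, unnormalised plate reads; the ratio scores behind the reporter calls were not deposited.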 Entries without a mark were called inactive. No sequences are given here. The record does not give: the amount of reagent, the time to read-out, the dose of the treatment.

Test: 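Knock-downs that push a Wingless-driven reporter up or down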 (primary screen)
Cells: Drosophila clone 8 imaginal disc epithelial cells
Reagent: long dsRNA against Drosophila genes
Conditions: pathway stimulated by co-transfected Wingless expression plasmid
Read-out: 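Dual luciferase reads per well after Wingless plasmid stimulation: reporter firefly light and Renilla control light; activity is firefly divided by Renilla, a ratio not deposited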
Direction: firefly reporter light: higher = more Wg reporter light, before normalisation; Renilla control light: higher = more transfected or surviving cells
Rule for the call: 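Strong candidates differ from their plate mean by at least two out of four per-plate statistical tests; weak candidates meet just one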
Calls: active = candidate regulator (raises or lowers reporter); inactive = not a candidate

What is on record for Dark (Death-associated APAF1-related killer) [DRSC05922]?
firefly reporter light, replicate 1: 15108; Renilla control light, replicate 1: 4643

What did the screen give for CG31200 [DRSC15285]?
firefly reporter light, replicate 1: 14411; Renilla control light, replicate 1: 3749

Which result is listed for CG15864 [DRSC15122]?
firefly reporter light, replicate 1: 17277; Renilla control light, replicate 1: 3473

What did the screen give for holn1 (hole-in-one) [DRSC02827]?
firefly reporter light, replicate 1: 15521; Renilla control light, replicate 1: 5372

With holn1 (hole-in-one) [DRSC22822], how do the results read?
firefly reporter light, replicate 1: 4.72e5; firefly reporter light, replicate 2: 5.38e5; Renilla control light, replicate 1: 1.78e5; Renilla control light, replicate 2: 2.33e5

Which result is listed for Cht7 (Chitinase 7) [DRSC08538]?
firefly reporter light, replicate 1: 3497; Renilla control light, replicate 1: 1146

Which result is listed for Cht7 (Chitinase 7) [DRSC21783]?
firefly reporter light, replicate 1: 3.43e5; firefly reporter light, replicate 2: 2.93e5; Renilla control light, replicate 1: 1.54e5; Renilla control light, replicate 2: 1.44e5

For exex (extra-extra) [DRSC10972], how do the results read?
firefly reporter light, replicate 1: 1280; firefly reporter light, replicate 2: 6498; Renilla control light, replicate 1: 1384; Renilla control light, replicate 2: 2069

For wac (wee Augmin) [DRSC08349], what does the deposit list?
firefly reporter light, replicate 1: 5653; Renilla control light, replicate 1: 2000

What did the screen give for CG13021 [DRSC17893]?
firefly reporter light, replicate 1: 26475; Renilla control light, replicate 1: 14706

How did the screen score CG7409 [DRSC10842]?
firefly reporter light, replicate 1: 1990; firefly reporter light, replicate 2: 7353; Renilla control light, replicate 1: 1274; Renilla control light, replicate 2: 2898

For CG30158 [DRSC04956], how do the results read?
firefly reporter light, replicate 1: 22835; Renilla control light, replicate 1: 11722

For CG30158 [DRSC04974], how do the results read?
firefly reporter light, replicate 1: 3382; firefly reporter light, replicate 2: 7480; Renilla control light, replicate 1: 1016; Renilla control light, replicate 2: 3219

Which result is listed for CG30158 [DRSC04975]?
firefly reporter light, replicate 1: 2709; firefly reporter light, replicate 2: 8384; Renilla control light, replicate 1: 837; Renilla control light, replicate 2: 3123

What did the screen give for CG30158 [DRSC05012]?
firefly reporter light, replicate 1: 4103; firefly reporter light, replicate 2: 9557; Renilla control light, replicate 1: 1190; Renilla control light, replicate 2: 3513

For RhoGAP1A (Rho GTPase activating protein at 1A) [DRSC20649], how do the results read?
firefly reporter light, replicate 1: 18298; Renilla control light, replicate 1: 10585

For RhoGAP1A (Rho GTPase activating protein at 1A) [DRSC20651], what does the deposit list?
firefly reporter light, replicate 1: 15948; Renilla control light, replicate 1: 9465

What did the screen give for hng3 (hinge3) [DRSC08367]?
firefly reporter light, replicate 1: 7321; Renilla control light, replicate 1: 3158

For CG7992 [DRSC20070], how do the results read?
firefly reporter light, replicate 1: 19025; Renilla control light, replicate 1: 7821

For Pkc98E (Protein C kinase 98E) [DRSC16791], what does the deposit list?
firefly reporter light, replicate 1: 3552; firefly reporter light, replicate 2: 4907; Renilla control light, replicate 1: 1377; Renilla control light, replicate 2: 743

What is on record for CG1142 [DRSC12531]?
firefly reporter light, replicate 1: 22540; Renilla control light, replicate 1: 5661

With wdn (wings down) [DRSC17095], what does the deposit list?
firefly reporter light, replicate 1: 2585; firefly reporter light, replicate 2: 5105; Renilla control light, replicate 1: 512; Renilla control light, replicate 2: 1207

Which result is listed for CG15916 [DRSC19740]?
firefly reporter light, replicate 1: 16736; Renilla control light, replicate 1: 7431

How did the screen score LSm7 (Like Sm 7) [DRSC02251]?
firefly reporter light, replicate 1: 3040; firefly reporter light, replicate 2: 9474; Renilla control light, replicate 1: 743; Renilla control light, replicate 2: 3241

With CG8112 [DRSC16377], what does the deposit list?
firefly reporter light, replicate 1: 12284; Renilla control light, replicate 1: 3200

Entries above whose target name begins with R or r (2):
RhoGAP1A (Rho GTPase activating protein at 1A) [DRSC20649]: firefly reporter light, replicate 1 = 18298; Renilla control light, replicate 1 = 10585
RhoGAP1A (Rho GTPase activating protein at 1A) [DRSC20651]: firefly reporter light, replicate 1 = 15948; Renilla control light, replicate 1 = 9465
